From patent US8686115B2, “Compositions and methods for quantitatively monitoring lipids” (The Board of Trustees of the University of Illinois, priority 2009, dated 2014) come the findings set out here.

This series can be described thus: Spectrofluorometry of sensor with LUVs (F450, F450/F520). Format: binding.

B1: DAN-eENTH: eENTH (M10C, C96A, S4W) linked via C10 to 2-dimethylamino-6-acyl-naphthalene (DAN); PtdIns(4,5)P2 sensor (conjugate)
chain: MSTWSLRRQCKNIVHNYSEAEIKVREATSNDPWGPSSSLMSEIADLTYNVVAFSEIMSMIWKRLNDHGKNWRHVYKAMTLMEYLIKTGSERVSQQAKENMYAVQTLKDFQYVDRDGKDQGVNVREKAKQLVALLRDEDRLREERAHALKTKEKLAQTA
modifications: DAN fluorophore on Cys10; Modified ENTH domain of Epsin 1.
notes: eENTH (M10C, C96A, S4W) linked via C10 to 2-dimethylamino-6-acyl-naphthalene (DAN); PtdIns(4,5)P2 sensor
B1: the “(F450/F520)max” value (LUV, FIG. 4c) is given as 5.0+/−0.3. Moreover, the “change in fluorescence emission upon membrane binding” value (POPC/POPS/PtdIns(4,5)P2 (80-x:20:x) LUV, not with vesicles containing any other phosphoinositide) is listed as “dramatic blue-shift with a maximal increase in emission intensity (F) at 460 nm”.
